Source: PubChem BioAssay AID504793 (Drosophila RNAi Screening Center, 2011)

Aim: 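Knock-downs allowing continued mitosis even though DNA is damaged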 (primary screen)
System: Drosophila S2R+ cells
Knock-down reagent: long dsRNA against Drosophila genes, about 0.25 µg dsRNA per well
Duration: 4 days of dsRNA, then 4 hours of drug before read-out
Treatment: doxorubicin 0.5 µM for 4 hours to cause double-strand breaks, in cells also given a low, harmless dose of dsRNA against nbs to sensitise the assay
Measured: 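Per-well count of mitotic cells stained for phospho-histone H3 after doxorubicin exposure, used as mitotic index; counts are raw and not normalised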
Direction: mitotic cells: higher = more cells in mitosis, weaker G2 arrest
Active means: 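a call needs confirmation in secondary tests, with other dsRNAs and a check of mitotic timing without damage, not just a high primary count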
Calls: active = confirmed in follow-up tests; inactive = not confirmed
The screen tested about 23,000 reagents; this is a random part of those with a known target gene and a result. Of all reagents, 62 (0.27%) were called active. 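Calls come from follow-up tests whose scores are not deposited, so confirmed genes may have low counts here; counts are not normalised per plate.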 The raw values are shown without normalisation.

"mitotic cells, replicate 1",call,gene,amplicon
7,inactive,Ldsdh1,DRSC18219
4,inactive,Ldsdh1,DRSC26664
8,inactive,sra,DRSC17015
19,inactive,CG9095,DRSC20150
16,active,Spt5,DRSC07556
18,active,eIF4G1,DRSC17218
16,inactive,eIF4G1,DRSC29786
2,inactive,Cnx99A,DRSC25426
7,inactive,Nepl16,DRSC14650
6,inactive,CG10011,DRSC14174
6,inactive,CG13712,DRSC08321
5,inactive,Mgtor,DRSC05958
4,inactive,Eaf6,DRSC09901
10,inactive,CG1737,DRSC19771
5,inactive,CG1737,DRSC25132
3,inactive,CG30447,DRSC05820
11,inactive,dia,DRSC03519
4,inactive,dia,DRSC24127
8,inactive,zip,DRSC04725
10,inactive,zip,DRSC22489
4,inactive,zip,DRSC28416
64,inactive,msd5,DRSC08560
47,inactive,msd5,DRSC26406
4,inactive,Or42a,DRSC04912
19,inactive,p24-1,DRSC19827
5,inactive,p24-1,DRSC26718
5,inactive,Gmd,DRSC03119
6,inactive,Gmd,DRSC27937
12,inactive,Invadolysin,DRSC15527
7,inactive,CG10834,DRSC03693
4,inactive,CG14073,DRSC10078
5,inactive,CG14073,DRSC27001
4,inactive,Cyp6a15Psi,DRSC07377
3,inactive,Cyp6a15Psi,DRSC28316
8,inactive,klu,DRSC11357
11,inactive,klu,DRSC26367
10,inactive,nAChRalpha4,DRSC11925
5,inactive,nAChRalpha4,DRSC26817
9,inactive,CG8492,DRSC10984
23,inactive,CG8492,DRSC21804
12,inactive,Jon99Cii,DRSC16858
9,inactive,Jon99Cii,DRSC22574
7,inactive,Dnaaf3,DRSC06684
9,inactive,Nepl7,DRSC02495
5,inactive,Nepl7,DRSC27685
11,inactive,CG15056,DRSC19630
7,inactive,GrlHz,DRSC04424
45,inactive,DCTN6-p27,DRSC02609
34,inactive,DCTN6-p27,DRSC22810
11,inactive,DCTN6-p27,DRSC29904
13,inactive,Alg13,DRSC14864
7,inactive,Alg13,DRSC28209
14,inactive,CG14655,DRSC12241
5,inactive,CG14655,DRSC29900
2,inactive,CG42540,DRSC08328
12,inactive,CG42540,DRSC23011
8,inactive,CG42540,DRSC25814
11,inactive,CG42540,DRSC28858
10,inactive,CG31076,DRSC16017
5,inactive,Sf3a1,DRSC15166
1,inactive,Spf30,DRSC11976
7,inactive,csul,DRSC07599
5,inactive,Psf3,DRSC18216
13,inactive,Psf3,DRSC21487
,inactive,retinin,DRSC09940
9,inactive,retinin,DRSC25734
5,inactive,CG11145,DRSC06049
7,inactive,l(2)09851,DRSC04858
10,inactive,Papss,DRSC11246
6,inactive,Papss,DRSC27101
7,inactive,SMC6,DRSC15829
8,inactive,SMC6,DRSC25997
5,inactive,CG18661,DRSC02690
11,inactive,CG11294,DRSC17777
2,inactive,CG11294,DRSC25060

Looked up above:
Value for CG15056 [DRSC19630] in “mitotic cells, replicate 1”: 11
Value of Psf3 [DRSC18216] in “mitotic cells, replicate 1”: 5
Gmd [DRSC27937], mitotic cells, replicate 1 = 6
CG8492 [DRSC10984], call: inactive
